Patent publication US10654939
These are yes or no findings as the source states them, for the method shown.

Experiments:
[1] = target: CD40 ECD Mutant 4 (amino acid 21-193, E35A/T37A) with mFc-tag (human); test: ELISA, recombinant CD40 ECD-mFc
[2] = target: CD40 ECD Mutant 2 (amino acid 21-193, T32A/E33A) with mFc-tag (human); test: ELISA, recombinant CD40 ECD-mFc
[3] = target: CD40 ECD Mutant 3 (amino acid 21-193, F34A/T35A) with mFc-tag (human); test: ELISA, recombinant CD40 ECD-mFc
[4] = target: CD40 ECD Mutant 4 (amino acid 21-193, E35A/T37A) with mFc-tag (human); test: ELISA on recombinant CD40 ECD proteins with mFc tag (Example 16); antibody concentration not given
[5] = target: CD40 ECD Mutant 2 (amino acid 21-193, T32A/E33A) with mFc-tag (human); test: as above
[6] = target: CD40 ECD Mutant 3 (amino acid 21-193, F34A/T35A) with mFc-tag (human); test: as above

| binding [1] | binding [2] | binding [3] | binding [4] | binding [5] | binding [6] | Binder |
| --- | --- | --- | --- | --- | --- | --- |
| no binding | no binding | no binding | no binding | no binding | no binding | chimeric 13A2 antibody (antibody, human IgG2, kappa, V domains shown) VH: EVKLEQSGPGLVKPSQSLSLTCSVTGYSITTNYYWNWIRQFPGNKLEWMGYINYDGSNNYNPSLKNRISITRDTSKNQFFLKLNSVTTEDTATYYCARLDYWGQGTSVTVSS VL: DIVMTQSPLSLPVSLGDQASISCRSSQSLENSNGNTFLNWFLQKPGQSPQLLIYKVSNRFSGVLDRFSGTGSGTDFTLTISRVEAEDLGVYFCLQVTHVPFTFGSGTKLEIKR |
|  |  |  | no binding | no binding | no binding | 13A2-VH3VL2 (antibody, human IgG2, kappa, V domains shown) VH: QVQLQESGPGLVKPSDTLSLTCAVSGYSITTNYYWNWIRQPPGNKLEWMGYINYDGSNNYNPSLKNRITISVDTSKNQFSLKLSSVTAVDTAVYYCARLDYWGQGTLVTVSS VL: DVVLTQSPLSLPVTLGQPASISCRSSQSLENSNGNTFLNWFQQRPGQSPRLLIYKVSNRFSGVPDRFSGSGSGTDFTLKISRVEAEDVGVYYCLQVTHVPFTFGQGTKLEIKR |
|  |  |  | no binding | no binding | no binding | 13A2-VH3VL3 (antibody, human IgG2, kappa, V domains shown) VH: QVQLQESGPGLVKPSDTLSLTCAVSGYSITTNYYWNWIRQPPGNKLEWMGYINYDGSNNYNPSLKNRITISVDTSKNQFSLKLSSVTAVDTAVYYCARLDYWGQGTLVTVSS VL: DVVLTQSPLSLPVTLGQPASISCRSSQSLENSNGNTFLNWFQQRPGQSPRLLIYKVSNRFSGVPDRFSGSGSGTDFTLKISRVEAEDVGVYFCLQVTHVPFTFGSGTKLEIKR |
